Data on five sequences can be found in article PMC12038257.

The exact form of at least one protein or probe is not confirmed. A negative result means that nothing was seen under these conditions. The comparison behind a weaker result is the experiment's own reference, which may not be listed here. At least one verdict was read from the data and is not stated in words by the source.

For the series, the target named is MdWRKY9 (UniProt D9ZJG3). The series is described as follows: EMSA. Conditions: EMSA buffer, pH and temperature not given (refers to earlier method, ref. 35), GST added to equalize protein in JAZ assays, recombinant protein, protein details: His (pET32a(+)), label: 3' biotin.

As for “TCACAGCCACGTGAATTGAATTGACCAATTTTCCAATTCTGTTTAT (double strand) [MdSOS2 W-box W2 (-149), probe 1]”, the binding result by setting is: (increasing MdJAZ5-GST) “binds more weakly”; (increasing MdJAZ10-GST) “binds more weakly”. On to “GCCAATCACCTTTTTATGTTGGTCAATGAATGGTTTAAGTTTCTGG (double strand) [MdSOS3 W-box probe 2 (-820)]”, for which the binding result was “no binding”. The same measure, in the same setting: under “TCGAGTCTGATAAAATATTATTGACCGAGTGCCATTCTATTGCGAT (double strand) [MdSOS3 W-box probe 3 (-865)]” stands “no binding”. Take “TATGAAAACTGGAACTTGGGTTGACTGAATTTACTTCTAATTTCAT (double strand) [MdSOS2 W-box W3 (-303), probe 2]”: the binding result is “binds more weakly” (increasing MdJAZ5-GST) and “binds more weakly” (increasing MdJAZ10-GST).

For the sequence “ATCATATTTTTACACTAAAAAGTCAATCTTGGTACTATTTATCTTA (double strand) [MdNHX1 W-box W1 (-1255)]”, the binding result runs as follows: (increasing MdJAZ5-GST) “binds more weakly”; (increasing MdJAZ10-GST) “binds more weakly”.
